At least one compound was matched to its structure with a doubt left.
Test: Biological distribution in bodies of normal mice
Assay type: in vivo, mice (ICR)
Conditions: caudal vein injection, 2 min
From the text: Through in-vivo distribution experiments, pharmacokinetic features, especially initial bran intake and brain removal situations of ^18F or ^125I labeled compounds in the bodies of mice are studied. […] Data are expressed in radioactive percentage dosage per organ (% ID/organ) and radioactive percentage dosage per gram of organ (% ID/g).

For COc1ccc(COc2ccc([125I])cc2)cc1 [[^125I]24], the Thyroid was 0.07 ( ).( )1 % ID/organ.
